According to PMC4974481:
These are yes or no findings as the source states them, for the method shown. In cells and extracts the contact can be indirect. Some entries that bind do so weakly or less than the wild type.

Amino acid sequences for entries named in this document (tags omitted).
UniProt P14859: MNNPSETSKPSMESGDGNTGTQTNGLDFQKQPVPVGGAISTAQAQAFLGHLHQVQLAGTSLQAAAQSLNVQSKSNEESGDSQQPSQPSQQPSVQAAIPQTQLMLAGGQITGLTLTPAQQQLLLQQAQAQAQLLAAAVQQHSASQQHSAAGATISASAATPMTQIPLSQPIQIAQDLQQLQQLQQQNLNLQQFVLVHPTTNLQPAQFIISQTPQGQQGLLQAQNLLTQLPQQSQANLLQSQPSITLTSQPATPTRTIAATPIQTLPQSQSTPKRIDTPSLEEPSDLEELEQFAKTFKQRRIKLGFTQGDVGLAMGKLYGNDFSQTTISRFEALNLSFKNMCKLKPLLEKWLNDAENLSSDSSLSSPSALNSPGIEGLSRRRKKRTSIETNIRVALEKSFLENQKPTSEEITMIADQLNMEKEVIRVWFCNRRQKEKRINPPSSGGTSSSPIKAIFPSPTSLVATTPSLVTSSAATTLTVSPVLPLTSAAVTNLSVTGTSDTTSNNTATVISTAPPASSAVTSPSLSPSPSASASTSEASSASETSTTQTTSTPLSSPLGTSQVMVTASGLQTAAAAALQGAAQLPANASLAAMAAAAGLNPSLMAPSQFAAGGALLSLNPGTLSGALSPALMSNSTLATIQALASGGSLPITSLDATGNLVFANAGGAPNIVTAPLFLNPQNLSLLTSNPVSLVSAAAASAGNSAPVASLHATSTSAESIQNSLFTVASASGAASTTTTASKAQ
UniProt P19474: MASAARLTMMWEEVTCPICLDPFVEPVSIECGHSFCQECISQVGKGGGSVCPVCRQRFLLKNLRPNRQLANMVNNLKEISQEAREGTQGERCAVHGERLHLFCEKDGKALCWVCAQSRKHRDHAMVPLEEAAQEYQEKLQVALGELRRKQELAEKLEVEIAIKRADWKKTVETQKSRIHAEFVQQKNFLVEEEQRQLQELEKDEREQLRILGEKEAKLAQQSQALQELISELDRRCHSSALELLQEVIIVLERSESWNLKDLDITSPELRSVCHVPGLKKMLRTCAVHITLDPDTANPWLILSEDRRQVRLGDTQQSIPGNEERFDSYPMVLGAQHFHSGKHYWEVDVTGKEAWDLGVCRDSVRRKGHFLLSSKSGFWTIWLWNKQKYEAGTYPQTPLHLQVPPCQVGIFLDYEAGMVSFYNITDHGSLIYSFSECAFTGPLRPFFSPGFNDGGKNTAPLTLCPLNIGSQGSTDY

Biological target: endogenous Oct-1 (octamer-binding transcription factor 1, encoded by POU2F1) (human (endogenous in HT29)) (UniProt P14859)
Assay: co-IP; HT29 lysate in RIPA buffer; 1 μg anti-Oct-1 antibody and Protein G dynabeads with 500 μg extracted protein, overnight at 4 °C, three washes; western blot with Clean-Blot IP detection kit

For “tripartite motif-containing protein 21 (TRIM21) (from UniProt P19474 1-475)”, the binding was “binds”.
